# Assay results from PubChem BioAssay AID504834 (National Center for Advancing Translational Sciences (NCATS), 2011).
# Hit rate of the full screen: of about 320,000 compounds, about 22,000 (6.9%) were called active. The inconclusive results got no clear call from the source; some entries with a clear call stand among them for comparison. Calls follow the shape of the dose curve; as a rule, active = well fitted inhibition curve with a large enough effect; inconclusive = small, poorly fitted or top-dose-only effect, or another doubt; inactive = no such curve, though single readings can be large or run the other way. Where the call is inconclusive, the potency comes from a doubtful curve fit.
# Test: Primary qHTS for delayed death inhibitors of the malarial parasite plastid, 96 hour incubation
# Conditions: P. falciparum luciferase reporter growth; series mostly up to 28.7 µM
# Method in brief: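 Two parasite generations (96 h, 37 C, 5% CO2) of compound exposure in infected erythrocytes (0.05% parasitemia, 2% hematocrit). Luciferase-reporter P. falciparum; decreased luminescence indicates inhibited growth, aimed at apicoplast-acting delayed death.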
# Potency is read from the fitted curve at half-maximal effect.
row,Structure (SMILES),Potency
1,Cc1cccc(NS(=O)(=O)c2csc(C(N)=O)c2)c1C,inactive
2,Cc1cccc(N2CCN(C(c3ccc(N(C)C)cc3)c3nnnn3C(C)(C)C)CC2)c1C (stereo unspecified),"inconclusive: 9.28 µM [inhibitor, partial curve, poor fit]"
3,O=[N+]([O-])c1nn(-c2ccc3c(c2)OCCO3)n(O)c1=NC1CCCC1,inactive
4,O=C(C1=C(O)C(=O)N(CCN2CCOCC2)C1c1ccc(Cl)cc1)c1cc2ccccc2o1 (stereo unspecified),"inconclusive: 18.5 µM [inhibitor, single point]"
5,CCOc1ccc(/C=N/NC(=O)c2ccc(Cn3cc([N+](=O)[O-])cn3)o2)cc1,"inconclusive: 0.233 µM [inhibitor, partial curve, poor fit]"
6,Cc1cc(NCc2ccccc2)nc(N2CCOCC2)n1,"inconclusive: 18.5 µM [inhibitor, single point]"
7,Cc1cccc(NC(=O)NCc2ccc3c(c2)cc(C)n3C)c1,active: 10.4 µM
8,Oc1ccc(C[C@H]2CNCCN2CCc2cccc(F)c2)cc1,"inconclusive: 11.7 µM [inhibitor, single point]"
9,Cc1ccc(S(=O)(=O)CCC(=O)Nc2ccccc2C)cc1,inactive
10,CC(/C=C\c1ccccc1)=C/C(=O)O,inactive
11,COc1ccc(N2CCN(C(CNC(=O)C(=O)NCCCn3ccnc3)c3ccco3)CC2)cc1 (stereo unspecified),"inconclusive: 1.31 µM [inhibitor, full curve, poor fit]"
12,Clc1ccccc1Nc1nc(-c2ccncc2)nc2ccccc12,"inconclusive: 9.28 µM [inhibitor, partial curve, poor fit]"
13,CC[n+]1c(/C=C/Nc2ccccc2)oc2ccccc21,"inconclusive: 14.7 µM [inhibitor, partial curve, poor fit]"
14,Cc1cccc(Cn2cnc3ccccc32)c1,"inconclusive: 11.7 µM [inhibitor, partial curve]"
15,Cc1ccccc1-n1nnnc1SCC(=O)NNC(=O)c1ccc(NC(=O)CC#N)cc1,"inconclusive: 0.104 µM [inhibitor, full curve]"
16,O=C(NCc1ccc2c(c1)OCO2)c1ccc(Br)s1,inactive
17,Cc1cccc(CCNC(=O)C2CCN(S(=O)(=O)c3c(C)noc3C)CC2)c1,"inconclusive: 20.8 µM [inhibitor, partial curve, poor fit]"
18,CCOC(=O)c1oc2c(CN3CCCCC3C)c(O)ccc2c(=O)c1-c1ccc(OC)c(OC)c1 (stereo unspecified),"inconclusive: 10.4 µM [inhibitor, single point]"
19,COc1cccc(CN(C)C(=O)CN2C(=O)NC(c3ccccc3)(c3ccccc3)C2=O)c1OC,active: 11.7 µM
20,CC(C)c1ccccc1NC(=O)c1ccco1,inactive
21,COc1ccc2nc(Cl)c(C#N)cc2c1,inactive
22,Cc1cc(O)c(C(=O)/C=C/c2ccc(Cl)cc2)c(=O)o1,"inconclusive: 10.4 µM [inhibitor, single point]"
23,COc1cccc(S(=O)(=O)Nc2noc3ccccc23)c1,"inconclusive: 10.4 µM [inhibitor, partial curve]"
24,COc1ccc(Cl)cc1NC(=O)NCC1CCN(Cc2cc(C)ccc2C)CC1,"inconclusive: 1.04 µM [inhibitor, partial curve, poor fit]"

# Of the compounds above, these have a thiophene ring, fused or not:
row,Structure (SMILES),Potency
1,Cc1cccc(NS(=O)(=O)c2csc(C(N)=O)c2)c1C,inactive
16,O=C(NCc1ccc2c(c1)OCO2)c1ccc(Br)s1,inactive

# Remaining list, next part:

row,Structure (SMILES),Potency
1,O=c1oc2ccccc2n1Cc1ccccc1,inactive
2,COc1ccc(CC(=O)Nc2c3c(nn2-c2cccc(C)c2C)CS(=O)C3)cc1OC (stereo unspecified),active: 2.62 µM
3,CC(=O)N1c2ccc(S(=O)(=O)N(C)CC(=O)NCc3ccc(C)cc3)cc2CC1C (stereo unspecified),"inconclusive: 5.22 µM [inhibitor, partial curve]"
4,O=C(N/N=C/c1cc([N+](=O)[O-])ccc1Cl)c1cnccn1,inactive
5,COc1ccc(C(=O)OCC(=O)NC(=O)NCc2ccccc2)cc1[N+](=O)[O-],inactive
6,CCCN1CCN(CCCNC(=O)c2ccc3nc(N4CCCCC4)sc3c2)CC1,"inconclusive: 13.1 µM [inhibitor, single point]"
7,COc1ccc2nc(SC)c(C#N)cc2c1,inactive
8,CC(C)(C)c1cc(CN2CCN(CCO)CC2)cc(C(C)(C)C)c1O,"inconclusive: 14.7 µM [inhibitor, single point]"
9,COc1ccc(C(=O)NCc2nnc(SCC(=O)Nc3cccc(OC)c3)o2)cc1,"inconclusive: 18.5 µM [inhibitor, single point]"
10,COCCNC(=O)C(=O)N/N=C(\C)CC(=O)Nc1ccc(Cl)cc1Cl,inactive
11,Cc1ccc(C)c(C(=O)OCC(=O)N(C)c2ccccc2)c1,inactive
12,O=c1o[nH]c(-c2ccccc2)c1C=Nc1ccc(Cl)cc1,"inconclusive: 1.04 µM [inhibitor, partial curve, poor fit]"
13,CCCn1c(=N)n(CC(=O)C(C)(C)C)c2ccccc21,"inconclusive: 11.7 µM [inhibitor, single point]"
14,CC(=O)c1ccc(NC(=O)CCn2c(=S)oc3ccccc32)cc1,"inconclusive: 11.7 µM [inhibitor, single point]"
15,COc1ccc(CC(=O)Nc2cccc(/C(C)=N/NC(=O)c3cccc([N+](=O)[O-])c3)c2)cc1,inactive
16,COc1ccc(C(=O)CC2(C(=O)O)CCCCC2)cc1,"inconclusive: 18.5 µM [inhibitor, single point]"
17,CN1CCN(S(=O)(=O)c2ccc(Cc3ccc(S(=O)(=O)N4CCN(C)CC4)cc3)cc2)CC1,active: 11.7 µM
18,Oc1ccc(Br)cc1/C=N/Nc1nc(N2CCCCC2)nc(N2CCOCC2)n1,"inconclusive: 11.7 µM [inhibitor, partial curve]"
19,COC(=O)c1ccccc1NC(=O)Cn1cnc([N+](=O)[O-])c1,"inconclusive: 8.28 µM [inhibitor, partial curve]"
20,CC(=O)c1cccc(NS(=O)(=O)c2cc(-c3cnc(C4CC4)o3)ccc2C)c1,"inconclusive: 2.08 µM [inhibitor, full curve]"
21,C=C(C)C1Cc2nc(N)nc(C)c2C1 (stereo unspecified),inactive
22,CCc1nn(C(CC)C(=O)NCCCN2CC(C)CC(C)C2)c(=O)c2cc3oc(C)cc3n12 (stereo unspecified),active: 0.185 µM
23,C=CC1C(OC2OC(CO)C(O)C(O)C2O)OC=C(C(=O)OC)C1CC1CC(=O)CC(CC(=O)CCc2ccc(O)cc2)O1 (stereo unspecified),active: 5.22 µM
24,COc1cccc(C(=O)Nc2nc(-c3ccc4c(c3)OCO4)cs2)c1,inactive

row,Structure (SMILES),Potency
1,C=CCn1c(SCn2nnc3ccccc3c2=O)nnc1-c1ccc(F)cc1,"inconclusive: 2.08 µM [inhibitor, full curve]"
2,Cc1ccc(C(=O)Nc2cccnc2)cc1Cl,active: 10.4 µM
3,O=C(NCc1n[nH]c(=S)n1-c1cccc(C(F)(F)F)c1)c1ccco1,"inconclusive: 6.57 µM [inhibitor, partial curve]"
4,O=C(CCc1ccccc1)N1N=C(c2ccncc2)CC1(O)C(F)(F)F (stereo unspecified),"inconclusive: 18.5 µM [inhibitor, single point]"
5,CC(C)Oc1ccc(S(=O)(=O)N2CCOCC2)cc1NC(=O)C(C)Oc1ccc(F)cc1 (stereo unspecified),"inconclusive: 13.1 µM [inhibitor, partial curve]"
6,COc1ccc(NS(=O)(=O)c2cc(NC(=O)c3cccnc3Cl)ccc2N2CCCC2)cc1,"inconclusive: 11.7 µM [inhibitor, single point]"
7,O=C(CSc1nc(-c2ccccc2)cs1)N1CCc2ccccc21,inactive
8,COC(=O)C1=C(c2cccc(C#N)c2)C[C@@H]2CC[C@H]1N2C(=O)NCCc1ccccc1,"inconclusive: 16.5 µM [inhibitor, single point]"
10,N=C1/C(=C/c2cccn2CCOc2ccccc2)C(=O)N=C2SC=C(c3ccccc3)N12,"inconclusive: 1.31 µM [inhibitor, full curve]"
11,COCc1cc(C)nc(SCC[N+](C)(C)CC(=O)c2ccc(Br)cc2)c1C#N,inactive
12,COc1cc2c(cc1OC)CN(C(=O)COc1ccc(C)c(C)c1)CC2,"inconclusive: 11.7 µM [inhibitor, single point]"
13,CCSc1nnc(NC(=O)CCNS(=O)(=O)c2cc(Br)cnc2N)s1,active: 9.28 µM
14,COc1ccc(NC(=O)CSCC(=O)N2CCN(C(=O)c3ccco3)CC2)cc1,"inconclusive: 18.5 µM [inhibitor, single point]"
15,Cc1ccc(-c2c(C(=O)N/N=C/c3cccs3)nnn2-c2nonc2N)cc1,active: 1.17 µM
16,CC(=O)Nc1ccc(/C=N/NC(=O)c2cccs2)cc1,"inconclusive: 1.47 µM [inhibitor, partial curve]"
17,CC1(C)NC(=O)N(CC(=O)OCC(=O)Nc2cc(S(=O)(=O)N3CCCCC3)ccc2Cl)C1=O,"inconclusive: 13.1 µM [inhibitor, single point]"
18,CN(Cc1nccn1C)C(=O)CCc1nnc(CCC2CCCCC2)o1,inactive
19,COC(=O)c1ccc(C(=O)Nc2nc3cc(N)c(C)cc3s2)cc1,inactive
20,CN(C)S(=O)(=O)N1CCN(c2ccc([N+](=O)[O-])c(N3CCOCC3)c2)CC1,"inconclusive: 3.29 µM [inhibitor, full curve, poor fit]"
21,O=C(Nc1ccccc1F)Nc1ccccc1OC(F)F,inactive
22,O=C(CN1CCCC1)Nc1nc(-c2ccc3c(c2)CCN3C(=O)c2ccccc2F)cs1,"inconclusive: 13.1 µM [inhibitor, partial curve]"
23,COC(=O)c1ccccc1NC(=O)c1ccc(NC(=O)C2CCCO2)cc1 (stereo unspecified),inactive
